Residue numbers refer to the chain shown, from its start.
B1: APG6: Arabidopsis thaliana albino and pale green (APG6) chloroplast transit peptide, SEQ ID NO:1, tested linked to DMO or PPO (protein, listed as Arabidopsis thalinana)
chain: MATATTTATAAFSGVVSVGTETRRIYSFSHLQPSAAFPAKPSSFKSLKLKQSARLTRRLDHRPFVVRC
B2: Optimized APG6: amino-terminal optimized variant of the APG6 CTP, SEQ ID NO:2 (protein)
chain: B1 chain with T3S, A4S

Tested on: R1 transgenic cotton plants
Experiment: Amino-terminal sequencing of DMO from R1 cotton leaf
Settings: DMO = full processing of the CTP

Row | Molecule | APG6-DMO processing
1 | B1 | DMO
2 | B2 | DMO
